These are yes or no findings as the source states them, for the method shown. Binding seen in cells or lysates may run through a third protein. Here binding means that the protein was enriched with, or labelled near, the bait; the list need not be complete. Where a sequence is shown, tags or fusion partners need not be part of it.
T1: Nob1-GFP (S. cerevisiae) (UniProt Q08444)
T1 sequence: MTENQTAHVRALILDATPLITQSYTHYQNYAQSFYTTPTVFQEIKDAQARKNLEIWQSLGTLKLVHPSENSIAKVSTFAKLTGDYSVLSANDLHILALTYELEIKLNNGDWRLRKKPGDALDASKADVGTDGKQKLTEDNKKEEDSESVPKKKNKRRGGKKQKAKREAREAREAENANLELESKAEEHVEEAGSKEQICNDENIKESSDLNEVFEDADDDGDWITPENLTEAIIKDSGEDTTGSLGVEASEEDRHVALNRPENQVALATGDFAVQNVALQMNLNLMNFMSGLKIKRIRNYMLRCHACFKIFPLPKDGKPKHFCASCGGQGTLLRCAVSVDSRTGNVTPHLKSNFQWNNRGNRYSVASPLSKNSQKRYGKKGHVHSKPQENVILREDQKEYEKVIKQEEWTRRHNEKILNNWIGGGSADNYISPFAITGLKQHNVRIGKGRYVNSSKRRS

Chains of the proteins cited; added tags and fusions are not shown.
UniProt P15646: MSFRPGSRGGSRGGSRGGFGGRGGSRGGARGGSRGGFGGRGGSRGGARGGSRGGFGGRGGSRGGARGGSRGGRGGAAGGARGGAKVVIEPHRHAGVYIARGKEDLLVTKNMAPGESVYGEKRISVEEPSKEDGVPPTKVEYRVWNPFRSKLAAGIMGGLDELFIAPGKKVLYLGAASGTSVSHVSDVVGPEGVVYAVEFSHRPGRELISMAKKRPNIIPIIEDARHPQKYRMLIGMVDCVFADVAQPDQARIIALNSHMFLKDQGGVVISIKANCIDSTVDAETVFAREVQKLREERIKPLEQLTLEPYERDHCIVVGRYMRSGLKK
UniProt P41819: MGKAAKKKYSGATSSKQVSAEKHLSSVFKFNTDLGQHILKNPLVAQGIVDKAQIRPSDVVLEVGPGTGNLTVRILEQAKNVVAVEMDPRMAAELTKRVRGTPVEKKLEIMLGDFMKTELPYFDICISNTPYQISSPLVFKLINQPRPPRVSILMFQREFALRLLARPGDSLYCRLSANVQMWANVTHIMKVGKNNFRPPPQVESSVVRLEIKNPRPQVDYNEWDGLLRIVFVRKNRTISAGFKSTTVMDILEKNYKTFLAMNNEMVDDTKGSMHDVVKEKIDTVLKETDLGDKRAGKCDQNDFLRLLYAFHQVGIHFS

T2: Tsr1-GFP (S. cerevisiae) (UniProt Q07381)
T2 sequence: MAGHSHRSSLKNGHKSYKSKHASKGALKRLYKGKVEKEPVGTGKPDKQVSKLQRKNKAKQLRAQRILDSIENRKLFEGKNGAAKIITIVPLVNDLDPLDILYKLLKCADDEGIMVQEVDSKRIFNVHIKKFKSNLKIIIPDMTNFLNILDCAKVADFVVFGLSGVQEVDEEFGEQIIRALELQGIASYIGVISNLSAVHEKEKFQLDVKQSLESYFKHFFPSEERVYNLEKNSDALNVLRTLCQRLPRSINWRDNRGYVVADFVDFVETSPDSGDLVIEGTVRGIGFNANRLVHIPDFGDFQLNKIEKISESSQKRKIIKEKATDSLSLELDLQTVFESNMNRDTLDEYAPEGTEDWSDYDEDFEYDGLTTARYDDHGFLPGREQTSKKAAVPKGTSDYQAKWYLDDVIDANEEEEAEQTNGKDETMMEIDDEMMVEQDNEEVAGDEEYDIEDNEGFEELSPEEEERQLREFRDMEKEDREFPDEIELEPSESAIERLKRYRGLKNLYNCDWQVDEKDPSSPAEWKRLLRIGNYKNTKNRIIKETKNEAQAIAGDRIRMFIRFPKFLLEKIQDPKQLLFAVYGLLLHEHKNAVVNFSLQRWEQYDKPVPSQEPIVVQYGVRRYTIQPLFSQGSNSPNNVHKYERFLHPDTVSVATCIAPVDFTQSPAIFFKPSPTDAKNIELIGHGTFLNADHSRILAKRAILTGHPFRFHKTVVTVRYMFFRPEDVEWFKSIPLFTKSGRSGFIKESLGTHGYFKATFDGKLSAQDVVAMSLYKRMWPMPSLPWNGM

T3: Pwp2-GFP (S. cerevisiae) (UniProt P25635)
T3 sequence: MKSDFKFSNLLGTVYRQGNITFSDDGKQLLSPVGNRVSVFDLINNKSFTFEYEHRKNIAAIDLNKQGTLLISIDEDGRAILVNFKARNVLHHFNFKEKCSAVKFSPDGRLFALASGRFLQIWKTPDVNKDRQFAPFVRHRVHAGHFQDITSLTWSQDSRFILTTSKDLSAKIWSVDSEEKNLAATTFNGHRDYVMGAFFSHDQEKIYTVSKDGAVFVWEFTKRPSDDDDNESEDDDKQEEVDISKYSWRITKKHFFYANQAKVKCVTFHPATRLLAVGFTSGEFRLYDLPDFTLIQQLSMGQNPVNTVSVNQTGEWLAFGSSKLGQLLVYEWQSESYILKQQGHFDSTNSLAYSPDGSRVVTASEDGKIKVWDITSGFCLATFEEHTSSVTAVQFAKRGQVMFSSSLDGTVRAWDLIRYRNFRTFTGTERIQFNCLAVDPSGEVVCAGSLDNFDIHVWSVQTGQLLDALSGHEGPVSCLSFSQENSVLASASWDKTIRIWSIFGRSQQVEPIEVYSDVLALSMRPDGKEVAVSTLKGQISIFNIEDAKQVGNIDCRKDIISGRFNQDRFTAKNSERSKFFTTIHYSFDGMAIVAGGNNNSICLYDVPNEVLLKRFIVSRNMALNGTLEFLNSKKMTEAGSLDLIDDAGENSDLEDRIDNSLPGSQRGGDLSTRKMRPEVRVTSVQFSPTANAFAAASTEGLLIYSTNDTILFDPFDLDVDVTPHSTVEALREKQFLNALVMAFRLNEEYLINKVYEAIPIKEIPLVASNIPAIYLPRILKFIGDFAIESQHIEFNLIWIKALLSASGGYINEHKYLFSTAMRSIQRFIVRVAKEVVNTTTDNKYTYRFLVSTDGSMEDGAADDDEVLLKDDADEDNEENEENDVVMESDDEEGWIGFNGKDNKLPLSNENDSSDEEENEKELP

T4: Enp1-GFP (S. cerevisiae) (UniProt P38333)
T4 sequence: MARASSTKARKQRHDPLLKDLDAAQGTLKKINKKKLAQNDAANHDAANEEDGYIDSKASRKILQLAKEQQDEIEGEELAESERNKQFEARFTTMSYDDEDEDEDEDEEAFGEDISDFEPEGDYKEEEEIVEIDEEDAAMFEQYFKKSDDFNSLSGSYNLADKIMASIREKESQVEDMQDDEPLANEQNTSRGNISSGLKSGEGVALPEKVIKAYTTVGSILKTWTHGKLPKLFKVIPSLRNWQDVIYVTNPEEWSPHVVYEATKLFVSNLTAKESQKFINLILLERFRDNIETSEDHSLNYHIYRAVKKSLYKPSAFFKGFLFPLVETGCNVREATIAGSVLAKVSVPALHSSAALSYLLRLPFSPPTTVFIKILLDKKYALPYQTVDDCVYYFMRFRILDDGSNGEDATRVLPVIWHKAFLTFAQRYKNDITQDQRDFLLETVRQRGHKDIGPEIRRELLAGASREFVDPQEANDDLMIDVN


What was measured:
Nob1-GFP (S. cerevisiae) = biological target: T1, Nob1-GFP (S. cerevisiae); test: affinity purification with mass spectrometry; GFP-tagged baits purified with GFP-Trap from GAL::HA-rrp12 cells shifted to glucose-containing media for 12 hours (Rrp12 depleted; columns 5 to 8)
Tsr1-GFP (S. cerevisiae) = biological target: T2, Tsr1-GFP (S. cerevisiae); test: as above
Pwp2-GFP (S. cerevisiae) = biological target: T3, Pwp2-GFP (S. cerevisiae); test: affinity purification with mass spectrometry; Pwp2-GFP complexes from Rrp12-depleted cells, gel bands identified by mass spectrometry; compared with control cells
Enp1-GFP (S. cerevisiae) = biological target: T4, Enp1-GFP (S. cerevisiae); test: affinity purification with mass spectrometry; GFP-tagged baits purified with GFP-Trap from GAL::HA-rrp12 cells shifted to glucose-containing media for 12 hours (Rrp12 depleted; columns 5 to 8)

| binding (Nob1-GFP (S. cerevisiae)) | binding (Tsr1-GFP (S. cerevisiae)) | binding (Pwp2-GFP (S. cerevisiae)) | binding (Enp1-GFP (S. cerevisiae)) | Molecule |
| --- | --- | --- | --- | --- |
|  |  | binds |  | nuclease Rrp44 (protein, UniProt Q08162 1-1001) MSVPAIAPRRKRLADGLSVTQKVFVRSRNGGATKIVREHYLRSDIPCLSRSCTKCPQIVVPDAQNELPKFILSDSPLELSAPIGKHYVVLDTNVVLQAIDLLENPNCFFDVIVPQIVLDEVRNKSYPVYTRLRTLCRDSDDHKRFIVFHNEFSEHTFVERLPNETINDRNDRAIRKTCQWYSEHLKPYDINVVLVTNDRLNREAATKEVESNIITKSLVQYIELLPNADDIRDSIPQMDSFDKDLERDTFSDFTFPEYYSTARVMGGLKNGVLYQGNIQISEYNFLEGSVSLPRFSKPVLIVGQKNLNRAFNGDQVIVELLPQSEWKAPSSIVLDSEHFDVNDNPDIEAGDDDDNNESSSNTTVISDKQRRLLAKDAMIAQRSKKIQPTAKVVYIQRRSWRQYVGQLAPSSVDPQSSSTQNVFVILMDKCLPKVRIRTRRAAELLDKRIVISIDSWPTTHKYPLGHFVRDLGTIESAQAETEALLLEHDVEYRPFSKKVLECLPAEGHDWKAPTKLDDPEAVSKDPLLTKRKDLRDKLICSIDPPGCVDIDDALHAKKLPNGNWEVGVHIADVTHFVKPGTALDAEGAARGTSVYLVDKRIDMLPMLLGTDLCSLKPYVDRFAFSVIWELDDSANIVNVNFMKSVIRSREAFSYEQAQLRIDDKTQNDELTMGMRALLKLSVKLKQKRLEAGALNLASPEVKVHMDSETSDPNEVEIKKLLATNSLVEEFMLLANISVARKIYDAFPQTAMLRRHAAPPSTNFEILNEMLNTRKNMSISLESSKALADSLDRCVDPEDPYFNTLVRIMSTRCMMAAQYFYSGAYSYPDFRHYGLAVDIYTHFTSPIRRYCDVVAHRQLAGAIGYEPLSLTHRDKNKMDMICRNINRKHRNAQFAGRASIEYYVGQVMRNNESTETGYVIKVFNNGIVVLVPKFGVEGLIRLDNLTEDPNSAAFDEVEYKLTFVPTNSDKPRDVYVFDKVEVQVRSVMDPITSKRKAELLLK |
|  |  | binds |  | Rcl1 (protein, UniProt Q08096 1-367) MSSSAPKYTTFQGSQNFRLRIVLATLSGKPIKIEKIRSGDLNPGLKDYEVSFLRLIESVTNGSVIEISYTGTTVIYRPGIIVGGASTHICPSSKPVGYFVEPMLYLAPFSKKKFSILFKGITASHNDAGIEAIKWGLMPVMEKFGVRECALHTLKRGSPPLGGGEVHLVVDSLIAQPITMHEIDRPIISSITGVAYSTRVSPSLVNRMIDGAKKVLKNLQCEVNITADVWRGENSGKSPGWGITLVAQSKQKGWSYFAEDIGDAGSIPEELGEKVACQLLEEISKSAAVGRNQLPLAIVYMVIGKEDIGRLRINKEQIDERFIILLRDIKKIFNTEVFLKPVDEADNEDMIATIKGIGFTNTSKKIA |

The next lines start with the molecule.

| Molecule | binding (Nob1-GFP (S. cerevisiae)) | binding (Tsr1-GFP (S. cerevisiae)) | binding (Pwp2-GFP (S. cerevisiae)) | binding (Enp1-GFP (S. cerevisiae)) |
| --- | --- | --- | --- | --- |
| Nop1 (from UniProt P15646 1-327) | binds | binds |  |  |
| Dim1 (endogenous) (from UniProt P41819 1-318) |  |  | binds |  |
| tRNA methyltransferase Ncl1 (protein, UniProt P38205 1-684) MARRKNFKKGNKKTFGARDDSRAQKNWSELVKENEKWEKYYKTLALFPEDQWEEFKKTCQAPLPLTFRITGSRKHAGEVLNLFKERHLPNLTNVEFEGEKIKAPVELPWYPDHLAWQLDVPKTVIRKNEQFAKTQRFLVVENAVGNISRQEAVSMIPPIVLEVKPHHTVLDMCAAPGSKTAQLIEALHKDTDEPSGFVVANDADARRSHMLVHQLKRLNSANLMVVNHDAQFFPRIRLHGNSNNKNDVLKFDRILCDVPCSGDGTMRKNVNVWKDWNTQAGLGLHAVQLNILNRGLHLLKNNGRLVYSTCSLNPIENEAVVAEALRKWGDKIRLVNCDDKLPGLIRSKGVSKWPVYDRNLTEKTKGDEGTLDSFFSPSEEEASKFNLQNCMRVYPHQQNTGGFFITVFEKVEDSTEAATEKLSSETPALESEGPQTKKIKVEEVQKKERLPRDANEEPFVFVDPQHEALKVCWDFYGIDNIFDRNTCLVRNATGEPTRVVYTVCPALKDVIQANDDRLKIIYSGVKLFVSQRSDIECSWRIQSESLPIMKHHMKSNRIVEANLEMLKHLLIESFPNFDDIRSKNIDNDFVEKMTKLSSGCAFIDVSRNDPAKENLFLPVWKGNKCINLMVCKEDTHELLYRIFGIDANAKATPSAEEKEKEKETTESPAETTTGTSTEAPSAAN |  | binds |  | binds |

From publication PMC4256259
